PubChem BioAssay AID1508597 – Cure First, 2020

Assay: 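Knock-downs altering ovarian cancer cell survival with or without PARP inhibitor rucaparib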 (primary screen)
Cells: human ovarian carcinoma lines grown from tumours: OCI-P5x (papillary serous) and OCI-C5x (clear cell)
Reagents: siRNA pool against human genes, 1.25 pmol siRNA per well
Time to read-out: 72 h or 96 h, depending on the cell culture
Conditions: rucaparib 20 µM (about IC30) or vehicle, present until read-out
Rucaparib or vehicle: Vehicle
Cell line: OCI-P5x (serous)
Detection: 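Luminescent ATP-based viability assay read 72 or 96 h after transfection, depending on culture, given as normalised percent viability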
Scale: viability, normalised: higher = more viable cells remaining
Hit rule: 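Active when normalised viability falls below 80 percent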
Meaning of the calls: active = viability under 80%; inactive = viability 80% or more
Shown is an unselected part of the about 2,100 reagents, in one setting of the screen. 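Calls flag viability under 80% in either arm, not effects specific to rucaparib; the reference for percent is not stated.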 A reagent listed more than once was tested more than once; the source does not tell the runs apart. Not stated in the record: the 100% reference.

The opening 3 entries, to show the layout:
TDP2 (GeneID 51567), technical replicate 1
- viability, normalised (%): 65.4
- Outcome: active

TDP2 (GeneID 51567), technical replicate 1
- viability, normalised (%): 47
- Outcome: active

TDP2 (GeneID 51567), technical replicate 2
- viability, normalised (%): 60.5
- Outcome: active

The list itself, from the start:
TDP2 (GeneID 51567), technical replicate 1
- viability, normalised (%): 65.4
- Outcome: active

TDP2 (GeneID 51567), technical replicate 1
- viability, normalised (%): 47
- Outcome: active

TDP2 (GeneID 51567), technical replicate 2
- viability, normalised (%): 60.5
- Outcome: active

TDP2 (GeneID 51567), technical replicate 2
- viability, normalised (%): 51.1
- Outcome: active

TDP2 (GeneID 51567), technical replicate 3
- viability, normalised (%): 62.6
- Outcome: active

TDP2 (GeneID 51567), technical replicate 3
- viability, normalised (%): 59.6
- Outcome: active

GCH1 (GeneID 2643), technical replicate 1
- viability, normalised (%): 77.1
- Outcome: active

GCH1 (GeneID 2643), technical replicate 2
- viability, normalised (%): 71.3
- Outcome: active

GCH1 (GeneID 2643), technical replicate 3
- viability, normalised (%): 77
- Outcome: active

DHX8 (GeneID 1659), technical replicate 1
- viability, normalised (%): 32.1
- Outcome: active

DHX8 (GeneID 1659), technical replicate 2
- viability, normalised (%): 40.1
- Outcome: active

DHX8 (GeneID 1659), technical replicate 3
- viability, normalised (%): 29.9
- Outcome: active

H4C6 (GeneID 8361), technical replicate 1
- viability, normalised (%): 74.7
- Outcome: active

H4C6 (GeneID 8361), technical replicate 2
- viability, normalised (%): 77.4
- Outcome: active

H4C6 (GeneID 8361), technical replicate 3
- viability, normalised (%): 86.3
- Outcome: inactive

SLC6A3 (GeneID 6531), technical replicate 1
- viability, normalised (%): 64.4
- Outcome: active

SLC6A3 (GeneID 6531), technical replicate 2
- viability, normalised (%): 47.2
- Outcome: active

SLC6A3 (GeneID 6531), technical replicate 3
- viability, normalised (%): 117
- Outcome: inactive

PALS2 (GeneID 51678), technical replicate 1
- viability, normalised (%): 69.5
- Outcome: active

PALS2 (GeneID 51678), technical replicate 2
- viability, normalised (%): 51.4
- Outcome: active

PALS2 (GeneID 51678), technical replicate 3
- viability, normalised (%): 49.3
- Outcome: active

TINF2 (GeneID 26277), technical replicate 1
- viability, normalised (%): 57.1
- Outcome: active

TINF2 (GeneID 26277), technical replicate 2
- viability, normalised (%): 56.6
- Outcome: active

TINF2 (GeneID 26277), technical replicate 3
- viability, normalised (%): 42.9
- Outcome: active

HP1BP3 (GeneID 50809), technical replicate 1
- viability, normalised (%): 57.3
- Outcome: active

HP1BP3 (GeneID 50809), technical replicate 2
- viability, normalised (%): 66.4
- Outcome: active

HP1BP3 (GeneID 50809), technical replicate 3
- viability, normalised (%): 70.8
- Outcome: active

ZDHHC17 (GeneID 23390), technical replicate 1
- viability, normalised (%): 56.4
- Outcome: active

ZDHHC17 (GeneID 23390), technical replicate 2
- viability, normalised (%): 57.4
- Outcome: active

ZDHHC17 (GeneID 23390), technical replicate 3
- viability, normalised (%): 78.3
- Outcome: active

CDH5 (GeneID 1003), technical replicate 1
- viability, normalised (%): 65
- Outcome: active

CDH5 (GeneID 1003), technical replicate 2
- viability, normalised (%): 69.7
- Outcome: active

CDH5 (GeneID 1003), technical replicate 3
- viability, normalised (%): 75.3
- Outcome: active
